Article PMC8430637
These are yes or no findings as the source states them, for the method shown. Binding seen in cells or lysates may run through a third protein. Some entries that bind do so weakly or less than the wild type. Tags and fused reporters may be left off the sequences shown. Values belong to the binder of their own block, whether it stands above or below them.

Chains of the proteins cited; added tags and fusions are not shown.
UniProt Q7Z6Z7: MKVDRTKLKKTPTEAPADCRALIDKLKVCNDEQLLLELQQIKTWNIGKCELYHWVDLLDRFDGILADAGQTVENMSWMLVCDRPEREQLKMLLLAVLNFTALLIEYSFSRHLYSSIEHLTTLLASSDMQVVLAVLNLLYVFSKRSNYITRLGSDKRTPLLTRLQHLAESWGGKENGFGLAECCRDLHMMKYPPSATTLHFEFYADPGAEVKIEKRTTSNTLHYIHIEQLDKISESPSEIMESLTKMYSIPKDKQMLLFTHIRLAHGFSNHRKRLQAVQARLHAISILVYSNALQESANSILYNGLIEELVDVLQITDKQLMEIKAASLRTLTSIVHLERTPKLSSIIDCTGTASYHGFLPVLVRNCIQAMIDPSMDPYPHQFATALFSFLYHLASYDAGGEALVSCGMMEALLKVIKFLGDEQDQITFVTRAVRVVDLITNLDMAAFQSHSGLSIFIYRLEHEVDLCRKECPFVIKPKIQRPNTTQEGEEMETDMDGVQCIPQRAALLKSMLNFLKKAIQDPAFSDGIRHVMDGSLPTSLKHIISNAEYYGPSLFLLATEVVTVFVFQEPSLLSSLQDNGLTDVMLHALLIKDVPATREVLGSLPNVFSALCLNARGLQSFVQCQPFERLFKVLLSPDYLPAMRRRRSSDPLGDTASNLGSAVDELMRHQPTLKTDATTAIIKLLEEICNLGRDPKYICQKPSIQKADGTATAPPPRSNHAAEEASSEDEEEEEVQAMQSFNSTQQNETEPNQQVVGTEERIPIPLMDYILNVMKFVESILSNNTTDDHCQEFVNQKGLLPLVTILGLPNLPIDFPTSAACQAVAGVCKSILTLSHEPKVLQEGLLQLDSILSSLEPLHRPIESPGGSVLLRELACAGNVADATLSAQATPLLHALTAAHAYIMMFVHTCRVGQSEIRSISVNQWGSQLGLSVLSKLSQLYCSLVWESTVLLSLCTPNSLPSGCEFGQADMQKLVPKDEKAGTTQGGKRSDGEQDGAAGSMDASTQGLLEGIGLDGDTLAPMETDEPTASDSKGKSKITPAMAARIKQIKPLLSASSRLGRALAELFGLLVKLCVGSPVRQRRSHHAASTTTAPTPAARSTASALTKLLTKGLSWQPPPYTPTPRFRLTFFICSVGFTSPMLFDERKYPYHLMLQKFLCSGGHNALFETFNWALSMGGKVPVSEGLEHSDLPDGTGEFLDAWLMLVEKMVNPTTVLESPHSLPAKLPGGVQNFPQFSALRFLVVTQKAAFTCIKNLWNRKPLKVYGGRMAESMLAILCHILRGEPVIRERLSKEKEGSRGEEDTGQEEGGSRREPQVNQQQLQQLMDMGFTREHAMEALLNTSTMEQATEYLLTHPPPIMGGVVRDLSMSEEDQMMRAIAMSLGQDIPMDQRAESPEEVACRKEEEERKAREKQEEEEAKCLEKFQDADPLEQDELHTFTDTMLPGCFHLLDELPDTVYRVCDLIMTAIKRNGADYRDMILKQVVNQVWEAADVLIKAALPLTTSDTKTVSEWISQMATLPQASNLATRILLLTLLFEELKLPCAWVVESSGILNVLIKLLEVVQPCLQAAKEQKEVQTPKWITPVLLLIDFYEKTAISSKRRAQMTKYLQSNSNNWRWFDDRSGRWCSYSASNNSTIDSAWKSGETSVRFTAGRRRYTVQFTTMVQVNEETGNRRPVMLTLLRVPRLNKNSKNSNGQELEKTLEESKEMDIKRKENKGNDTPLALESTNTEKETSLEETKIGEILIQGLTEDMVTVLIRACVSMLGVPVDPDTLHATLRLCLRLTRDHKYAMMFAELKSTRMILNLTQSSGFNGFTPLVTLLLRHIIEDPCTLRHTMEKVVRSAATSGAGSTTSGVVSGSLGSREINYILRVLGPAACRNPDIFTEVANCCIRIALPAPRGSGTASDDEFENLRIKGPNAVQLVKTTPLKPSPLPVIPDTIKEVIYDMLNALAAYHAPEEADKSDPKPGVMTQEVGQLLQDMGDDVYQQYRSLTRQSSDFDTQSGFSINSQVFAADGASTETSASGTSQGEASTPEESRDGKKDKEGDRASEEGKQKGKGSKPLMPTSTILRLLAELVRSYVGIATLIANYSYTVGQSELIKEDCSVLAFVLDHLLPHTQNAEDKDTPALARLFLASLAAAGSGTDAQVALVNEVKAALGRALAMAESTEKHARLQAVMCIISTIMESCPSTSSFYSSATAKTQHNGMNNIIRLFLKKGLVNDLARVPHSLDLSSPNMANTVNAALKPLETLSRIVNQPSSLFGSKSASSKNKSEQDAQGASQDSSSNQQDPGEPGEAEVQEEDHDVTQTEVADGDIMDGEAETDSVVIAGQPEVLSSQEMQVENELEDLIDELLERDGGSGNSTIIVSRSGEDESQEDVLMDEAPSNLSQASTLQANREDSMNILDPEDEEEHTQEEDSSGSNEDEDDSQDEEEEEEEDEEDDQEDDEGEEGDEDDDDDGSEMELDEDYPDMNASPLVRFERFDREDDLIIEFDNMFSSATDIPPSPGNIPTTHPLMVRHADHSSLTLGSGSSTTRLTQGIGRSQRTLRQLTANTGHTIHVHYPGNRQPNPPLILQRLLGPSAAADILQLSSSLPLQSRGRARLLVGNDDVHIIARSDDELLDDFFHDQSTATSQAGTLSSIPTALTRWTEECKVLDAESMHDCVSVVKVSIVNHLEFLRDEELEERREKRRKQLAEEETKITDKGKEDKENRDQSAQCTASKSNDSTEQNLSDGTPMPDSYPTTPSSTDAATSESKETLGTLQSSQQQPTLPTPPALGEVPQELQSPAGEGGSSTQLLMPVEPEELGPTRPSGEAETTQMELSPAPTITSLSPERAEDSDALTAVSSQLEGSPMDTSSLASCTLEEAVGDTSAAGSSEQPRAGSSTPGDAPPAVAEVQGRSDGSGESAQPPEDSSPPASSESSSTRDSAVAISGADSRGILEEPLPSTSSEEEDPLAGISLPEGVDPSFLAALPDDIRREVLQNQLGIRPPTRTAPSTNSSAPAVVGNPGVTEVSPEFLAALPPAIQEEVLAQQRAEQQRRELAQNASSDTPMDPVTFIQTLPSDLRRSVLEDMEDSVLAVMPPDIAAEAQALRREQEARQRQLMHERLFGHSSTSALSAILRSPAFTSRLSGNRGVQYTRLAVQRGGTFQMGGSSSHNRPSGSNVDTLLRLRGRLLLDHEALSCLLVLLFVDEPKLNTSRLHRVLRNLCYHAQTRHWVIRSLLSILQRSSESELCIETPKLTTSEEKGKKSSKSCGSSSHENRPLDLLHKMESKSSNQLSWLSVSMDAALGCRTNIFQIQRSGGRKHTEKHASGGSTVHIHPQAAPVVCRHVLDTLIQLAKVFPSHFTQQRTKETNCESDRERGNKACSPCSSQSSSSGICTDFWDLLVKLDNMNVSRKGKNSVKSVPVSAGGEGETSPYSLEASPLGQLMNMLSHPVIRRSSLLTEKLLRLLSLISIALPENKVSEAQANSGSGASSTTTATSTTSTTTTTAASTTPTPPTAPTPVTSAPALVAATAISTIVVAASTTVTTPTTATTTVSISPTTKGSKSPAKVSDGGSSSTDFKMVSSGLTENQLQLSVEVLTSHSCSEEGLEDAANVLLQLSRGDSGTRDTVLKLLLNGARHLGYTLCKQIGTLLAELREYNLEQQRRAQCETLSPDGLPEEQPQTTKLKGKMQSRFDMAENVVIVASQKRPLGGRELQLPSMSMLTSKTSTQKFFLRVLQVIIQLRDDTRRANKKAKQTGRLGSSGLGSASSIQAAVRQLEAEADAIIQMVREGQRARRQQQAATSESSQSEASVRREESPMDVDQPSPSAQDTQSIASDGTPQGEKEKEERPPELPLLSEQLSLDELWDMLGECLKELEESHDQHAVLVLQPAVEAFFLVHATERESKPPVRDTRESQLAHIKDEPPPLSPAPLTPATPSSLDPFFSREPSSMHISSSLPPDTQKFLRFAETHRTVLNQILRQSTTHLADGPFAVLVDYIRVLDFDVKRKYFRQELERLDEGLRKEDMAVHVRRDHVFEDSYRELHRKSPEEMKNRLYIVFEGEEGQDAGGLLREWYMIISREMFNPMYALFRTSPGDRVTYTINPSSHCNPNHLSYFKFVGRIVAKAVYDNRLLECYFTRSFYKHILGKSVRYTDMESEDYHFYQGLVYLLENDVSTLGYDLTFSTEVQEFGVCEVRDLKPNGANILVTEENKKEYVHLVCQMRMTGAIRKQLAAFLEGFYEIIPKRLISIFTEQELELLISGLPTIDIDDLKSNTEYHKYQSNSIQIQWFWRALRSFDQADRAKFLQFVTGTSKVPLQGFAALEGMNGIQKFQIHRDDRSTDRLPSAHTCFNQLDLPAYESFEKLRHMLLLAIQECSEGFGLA

Molecular target: HECT, UBA and WWE domain containing E3 ubiquitin protein ligase 1 (HUWE1), endogenous (human (endogenous in MIA PaCa-2)) (UniProt Q7Z6Z7)
Assay: co-IP; anti-HUWE1 immunoprecipitation from cell lysate (1% NP-40, 150 mM NaCl, 20 mM Tris-HCl, 2 mM EDTA), protein A agarose, 4 °C; blot with anti-ATG101; cells in basal condition or amino acid-deprived medium for 2 h

binding: binds
B1: autophagy-related protein 101 (ATG101), endogenous (protein, UniProt Q9BSB4 1-218)
chain: MNCRSEVLEVSVEGRQVEEAMLAVLHTVLLHRSTGKFHYKKEGTYSIGTVGTQDVDCDFIDFTYVRVSSEELDRALRKVVGEFKDALRNSGGDGLGQMSLEFYQKKKSRWPFSDECIPWEVWTVKVHVVALATEQERQICREKVGEKLCEKIINIVEVMNRHEYLPKMPTQSEVDNVFDTGLRDVQPYLYKISFQITDALGTSVTTTMRRLIKDTLAL

binding: binds
B2: FLAG-ATG101 full length (protein, UniProt Q9BSB4 1-218)
chain: B1 chain
